Experimental data from PubChem BioAssay AID2417 (National Center for Advancing Translational Sciences (NCATS), 2010).
The whole screen tested about 140,000 compounds, of which about 4,300 (3.1%) were called active. Inconclusive results, whose numbers are uncertain, are shown with a selection of clear calls.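 The calls were made as follows: active = readout at or below -70, meaning at least 70% loss of cells showing the perinucleolar compartment, a nuclear body marking cancer cells; inconclusive = readout between -30 and a set limit; inactive = the rest.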

assay: High Content Assay for Compounds that inhibit the Assembly of the Perinucleolar Compartment; conditions: PC3M PTB-GFP, PNC prevalence imaging, 16 h; at 10 µM; active compounds read low;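 also: plate controls were DMSO wells for no effect and camptothecin positive control wells for full effect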
Method in brief: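 Compounds are pinned in duplicate onto adhered PC3M cells stably expressing GFP-tagged PTB and incubated 16 h at 37 C. Cells are then fixed, nuclei stained with Hoechst, and PNC-positive cells counted.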

SMILES | activity change (PNC), negative = inhibition
CCC(=O)NCCc1nc2ccccc2n1CC(=O)c1ccccc1 | inactive: 67.1%
O=C(Cc1csc(Nc2nc(=S)[nH]c3ccccc23)n1)NCc1cccc(Cl)c1 | inconclusive: -38%
COC(=O)c1ccc(NC(=O)c2ccccc2NS(C)(=O)=O)cc1 | active: -104%
O=C1c2ccccc2NC(c2cn[nH]c2-c2ccc(Cl)cc2)N1O (centres undefined) | inactive: 38.3%
COCc1cc(C)nc(OCC(=O)N/N=C/c2ccc(OC)c(O)c2)c1C#N | inconclusive: -32.6%
COCCOC(=O)C1=C(C)NC(=O)CC1c1cc2c(cc1Br)OCO2 (centres undefined) | inactive: 63.3%
O=C(CSc1nnc(Cn2c(=O)sc3ccccc32)n1-c1ccccc1)NCC1CCCO1 (centres undefined) | active: -108%
Cc1ccc(OCC(=O)Nc2ccc(F)cc2)cc1C | active: -100%
CC(C)c1ccccc1NC(=O)c1ccccc1NC(=O)C1CCCCC1 | inconclusive: -32.9%
COC(=O)c1cc(-c2ccc(OC)c(OC)c2)on1 | inconclusive: -32.3%
COc1cccc(OC)c1C(=O)NNC(=O)c1cccc(COc2ccc3c(c2)CCC3)c1 | inactive: 22.8%
O=C(Nc1ccc(N2CCN(C(=O)c3ccco3)CC2)c(Cl)c1)c1c(F)c(F)c(F)c(F)c1F | inactive: -15.6%
Cc1[nH]n(-c2ccc(Cl)cc2)c(=O)c1/C=N/c1nnc(-c2ccccc2)s1 | inactive: 45.3%
CCOC(=O)N1CCN(S(=O)(=O)c2cc(Br)cc3c2N(C(=O)C2CC2)CC3)CC1 | inconclusive: -75.4%
CCc1c(O)nc(SCC(=O)Nc2ccccc2C)[nH]c1=O | inconclusive: -48.1%
Cn1c(CSc2nc3ccccc3n2C)nc2ccccc21 | inconclusive: -69.2%
CC1(C)Cc2c(sc3c2c(=N)n(Cc2ccco2)c(=O)n3Cc2ccc(F)cc2)CO1 | inconclusive: -42.2%
Cc1ccc(-n2c(SCC3CCCCO3)nnc2-c2ccco2)cc1 (centres undefined) | inactive: 33.1%
c1ccc2c(c1)oc1c(NCCN3CCOCC3)ncnc12 | inconclusive: -34.9%
FC(F)Oc1ccc(/C=N/c2c(-c3ccc(OC(F)F)cc3)nc3n2CCS3)cc1 | inactive: 321%
COc1ccc(-c2ccc(/C=C3\C(=O)N(c4ccccc4)N=C3c3ccccc3)o2)c([N+](=O)[O-])c1 | inconclusive: -41.1%
O=[N+]([O-])c1c(C(Cl)Cl)nn(-c2ccccc2)c1N1CCCC1 | inactive: -4.67%
CC(C)C(C(=O)Nc1ccc(S(=O)(=O)N2CCOCC2)cc1)N1C(=O)c2ccccc2C1=O (centres undefined) | inconclusive: -34.1%
CCOC(=O)c1cc2sccc2n1Cc1ccc(C#N)cc1 | inconclusive: -49.4%

Two entries picked at random from those above:
SMILES | activity change (PNC), negative = inhibition
O=C(Cc1csc(Nc2nc(=S)[nH]c3ccccc23)n1)NCc1cccc(Cl)c1 | inconclusive: -38%
c1ccc2c(c1)oc1c(NCCN3CCOCC3)ncnc12 | inconclusive: -34.9%
